# Literature values as cited in US7868015B2, “Phosphodiesesterase 4 inhibitors for the treatment of a cognitive deficit” (Cold Spring Harbor Laboratory, priority 2000, dated 2011).
# At least one structure is not confirmed: it was looked up by name or label, or the drawing left a doubt.
# Test system: mice lacking both adenylate cyclase 1 (AC1) and AC8
# Settings: administration to area CA1 of the hippocampus (Wong et al. 1999); cited from earlier work
smiles,measurement,value
C=C[C@@]1(C)CC(=O)[C@]2(O)[C@@]3(C)[C@@H](O)CCC(C)(C)[C@@H]3[C@H](O)[C@H](OC(C)=O)[C@@]2(C)O1 [forskolin],learning and memory of hippocampal-dependent tasks,restores learning and memory
